Measurements from patent US10014546B2 (priority 2012, dated 2018).

Test: 5 cm^2 active area flow battery cell test
Details: for cell potential at open circuit: 50% SOC

Molecule: CC(O)C(=O)[O-].CC(O)C(=O)[O-].O=C([O-])c1ccccc1O.[Ti+3] [Ti^IV/III(lactate)2(salicylate), titanium bis-lactate mono-salicylate]
- cell potential at open circuit (Example 5, 1 M, Fe(CN)6 positive electrolyte, carbon paper, NAFION 25 μm): 1.60 V

Molecule: Oc1cccc2c1[O][Ti-2]13([O]c4ccccc4[O]1)([O]c1ccccc1[O]3)[O]2.[K+].[Na+] [Ti(catecholate)2(pyrogallate)^2−/3−, sodium potassium titanium(IV) biscatecholate monopyrogallate]
- energy density of flow battery active materials (Example 4, […], Fe(CN)6 positive electrolyte): 32.79 Wh/L

Molecule: Disodium titanium(IV) triscatecholate [Ti(catecholate)^2−/3−]
- cell potential at open circuit (Example 2, 0.5 M, pH 11, Fe^3+/2+ (CN)6^3−/4− positive electrolyte, carbon felt, NAFION 50 μm): 1.63 V
